Reference: patent US20070020196A1, “Inhalant formulation containing sulfoalkyl ether cyclodextrin and corticosteroid prepared from a unit dose suspension” (priority 2003, published 2007)
For at least one compound, name, drawing or mass did not settle the structure.

Assay: Stability of budesonide R- and S-isomers with and without SBE7-β-CD (Example 13)
Format: physicochemical
Description: The inventors have also discovered that SAE-CD is capable of stabilizing the isomers of budesonide to different extents. A study to determine if SBE7-β-CD stabilized budesonide solutions and if it preferentially stabilized one isomer was conducted according to Example 13. FIG. 11 is a semi-log plot of the % of initial concentration at each time point for the samples stored at 60 ° C. Loss of budesonide was first order at each temperature.
Solutions of budesonide with and without SBE7-β-CD were prepared at two different pHs (4 and 6) and stored at 2 different temperatures (60° C. and 80° C.). Citrate buffers (50 mM) at each pH value were prepared by mixing differing portions of 50 mM citric acid and 50 mM sodium citrate (tribasic, dihydrate) solutions. To achieve a concentration of budesonide in the buffers without SBE7-β-CD sufficient for accurate measurement, the budesonide was dissolved first in 100% ethyl alcohol. An aliquot of the ethanol/budesonide solution was then added drop-wise with stirring to each buffer solution. The theoretical budesonide concentration was 100 μg/mL with a final ethanolic content of 5% in each buffer. All solution preps and procedures involving budesonide were done in a darkened room under red light. After shaking solutions for 24 hours, both buffer solutions were filtered through Millipore Millex-GV 0.22 μm syringe filters to remove any solid that had precipitated (no significant amounts observed) from the solutions. The final budesonide concentration was about 50 μg/mL. Both the pH 4 and 6 solutions were split in two, and solid SBE7-β-CD was added to one of the portions to create solutions with and without 1% w/v SBE7-β-CD at each pH. Each solution was aliquoted into individual amber vials. They were then placed in ovens at 60° C. and 80° C. Sample vials were removed from the ovens and analyzed by HPLC at 0, 96, 164, and 288 hours. The HPLC assay conditions are summarized below.

**Q.** Which “R/S rate constant ratio” value (pH 4 no CAPTISOL, 60° C.) does the source give for `CCCC1O[C@@H]2C[C@H]3[C@@H]4CCC5=CC(=O)C=C[C@]5(C)[C@H]4[C@@H](O)C[C@]3(C)[C@]2(C(=O)CO)O1` (stereo partly drawn) [Budesonide, (R,S)-11β,16α,17,21-tetrahydroxypregna-1,4-diene-3,20-dione cyclic 16,17-acetal with butyraldehyde] here?
**A.** 2.99

**Q.** And the “R/S rate constant ratio” value (pH 4 no CAPTISOL, 80° C.)?
**A.** 2.83

**Q.** And the “R/S rate constant ratio” value (pH 4 w/ CAPTISOL, 60° C.)?
**A.** 5.06

**Q.** And the “R/S rate constant ratio” value (pH 4 w/ CAPTISOL, 80° C.)?
**A.** 3.49

**Q.** And the “R/S rate constant ratio” value (pH 6 no CAPTISOL, 60° C.)?
**A.** 2.31

**Q.** What about the “R/S rate constant ratio” value (pH 6 no CAPTISOL, 80° C.) of the same molecule?
**A.** 2.09

**Q.** What about the “R/S rate constant ratio” value (pH 6 w/ CAPTISOL, 60° C.) of the same molecule?
**A.** 4.60

**Q.** What about the “R/S rate constant ratio” value (pH 6 w/ CAPTISOL, 80° C.) of the same molecule?
**A.** 2.88
